Measured values reported in the supplement of paper PMC12593923.
Where a name gives a salt, the structure may show the parent alone. Some well-known active drugs show little effect in this data set, so a weak value is uncertain.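 All three lines are high-grade serous ovarian cancer cells differing in chemosensitivity, with OVCAR3 described as the chemosensitive one. Toxicity was scaled between DMSO vehicle wells and fully lysed wells, the score derives from a fitted multi-dose response curve, and the authors counted a score above 5 as drug sensitivity.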

Columns and labels:
Assay in all cases: drug sensitivity score (DSS2, cytotoxicity, CellTox Green); higher = more cytotoxic / more sensitive; extreme values may be limits of the assay
Details in all cases: 72 h; doses 0.5, 1, 5 µM
[1] = tested on: Kuramochi
[2] = tested on: OVCAR4
[3] = tested on: OVCAR3

Compound	drug sensitivity score [1] [DSS]	drug sensitivity score [2] [DSS]	drug sensitivity score [3] [DSS]
O=c1[nH]c(=O)n([C@H]2C[C@H](O)[C@@H](CO)O2)cc1F [Floxuridine]	0	0	0
O=C1CCC[C@@H]2[C@H]3CCCN4CCC[C@@H](CN12)[C@@H]34 [Matrine]	0	0	0
CCCCC1=NC2(CCCC2)C(=O)N1Cc1ccc(-c2ccccc2-c2nnn[nH]2)cc1 [Irbesartan]	0	0	0
CN(C)C(=O)c1cc2cnc(Nc3ccc(N4CCNCC4)cn3)nc2n1C1CCCC1 [Ribociclib succinate hydrate]	0	0	0
Cn1ncnc1[C@H]1c2n[nH]c(=O)c3cc(F)cc(c23)N[C@@H]1c1ccc(F)cc1 [Talazoparib]	0	0	0
CC(C)=CCC/C(C)=C/CC/C(C)=C/C=C/C(C)=C/C(=O)O [Peretinoin]	0	0	0
O=[N+]([O-])c1ccc(-c2cn3c4c(sc3n2)CCCC4)cc1 [Pifithrin-α, p-Nitro, Cyclic]	0	0	0
NC(=O)c1cnc2[nH]ccc2c1N[C@@H]1[C@@H]2CC3C[C@H]1C[C@@](O)(C3)C2 [Peficitinib]	0	0	0
CO[C@@H]1[C@@H](OC(N)=O)[C@@H](O)[C@H](Oc2ccc3c(O)c(NC(=O)c4ccc(O)c(CC=C(C)C)c4)c(=O)oc3c2C)OC1(C)C [Novobiocin (Sodium)]	0	0	0
S=C(N/N=C1/CCCc2cccnc21)N1CCN(c2ccccn2)CC1 [COTI-2]	0	0	0
Nc1cccc2c1CN(C1CCC(=O)NC1=O)C2=O (configuration not stated) [Lenalidomide]	0	0	0
CC(C)Cn1cnc2c(N)nc3ccccc3c21 [Imiquimod]	0	0	0
COc1ccc2cc([C@H](C)C(=O)O)ccc2c1 [Naproxen (sodium)]	0	0	0
CC1(C)CCC2(CC1)N[C@@H](C(=O)N[C@@H]1CC[C@@H](C(N)=O)OC1)[C@H](c1ccnc(Cl)c1F)[C@]21C(=O)Nc2cc(Cl)ccc21 [Milademetan (tosylate hydrate)]	0	0	0
C[C@H](CCC(=O)NCCS(=O)(=O)O)[C@H]1CC[C@H]2[C@@H]3[C@H](O)C[C@@H]4C[C@H](O)CC[C@]4(C)[C@H]3CC[C@]12C [Taurochenodeoxycholic acid (sodium salt)]	0	0	0
C[C@]12C=CC(=O)C=C1CC[C@@H]1[C@@H]2C(=O)C[C@@]2(C)[C@H]1CC[C@]2(O)C(=O)CO [Prednisone]	0	0.4	0
COC(=O)c1cc(OC)c2c(c1-c1c(CO)cc(OC)c3c1OCO3)OCO2 [Bicyclol]	0	0	0
COCCCOc1cc(C[C@@H](C[C@H](N)[C@@H](O)C[C@H](C(=O)NCC(C)(C)C(N)=O)C(C)C)C(C)C)ccc1OC [Aliskiren]	0	0	0
CC#C[C@]1(O)CC[C@H]2[C@@H]3CCC4=CC(=O)CCC4=C3[C@@H](c3ccc(N(C)C)cc3)C[C@@]21C [Mifepristone]	0	0	0

Entries of single compounds, quoted from the list. Values in the order: drug sensitivity score [1] [DSS]	drug sensitivity score [2] [DSS]	drug sensitivity score [3] [DSS]
`COc1ccc2cc([C@H](C)C(=O)O)ccc2c1` [Naproxen (sodium)] as listed: 0	0	0
`CC1(C)CCC2(CC1)N[C@@H](C(=O)N[C@@H]1CC[C@@H](C(N)=O)OC1)[C@H](c1ccnc(Cl)c1F)[C@]21C(=O)Nc2cc(Cl)ccc21` [Milademetan (tosylate hydrate)] as listed: 0	0	0
